From PMC12619835

The chains behind the UniProt entries cited, without tags or fusion partners.
UniProt Q13887: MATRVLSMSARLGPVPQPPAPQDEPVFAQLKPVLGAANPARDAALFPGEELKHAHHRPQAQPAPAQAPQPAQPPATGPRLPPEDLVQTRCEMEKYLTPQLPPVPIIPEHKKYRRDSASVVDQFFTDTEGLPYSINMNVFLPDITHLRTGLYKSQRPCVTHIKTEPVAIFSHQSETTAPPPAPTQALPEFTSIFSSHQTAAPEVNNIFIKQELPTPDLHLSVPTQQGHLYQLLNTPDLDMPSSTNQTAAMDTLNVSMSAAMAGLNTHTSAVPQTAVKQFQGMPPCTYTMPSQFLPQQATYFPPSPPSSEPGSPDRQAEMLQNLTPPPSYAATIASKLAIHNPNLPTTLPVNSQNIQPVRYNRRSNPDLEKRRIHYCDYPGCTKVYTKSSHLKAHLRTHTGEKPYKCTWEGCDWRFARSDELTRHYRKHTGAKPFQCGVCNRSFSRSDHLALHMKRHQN

Target: recombinant MBP-tagged KLF5 (human) (UniProt Q13887)
Assay: affinity purification with mass spectrometry; purified MBP-KLF5 (MBP alone as control) held on magnetic protein G beads by an MBP antibody; Benzonase-treated, pre-cleared AsPC-1 nuclear extract, 1-2 h; washes with 120 mM NaCl; 4 °C; three replicates; only the target purified

B1: TADA2B (protein, UniProt Q86TJ2 1-420)
chain: MAELGKKYCVYCLAEVSPLRFRCTECQDIELCPECFSAGAEIGHHRRYHGYQLVDGGRFTLWGPEAEGGWTSREEQLLLDAIEQFGFGNWEDMAAHVGASRTPQEVMEHYVSMYIHGNLGKACIPDTIPNRVTDHTCPSGGPLSPSLTTPLPPLDISVAEQQQLGYMPLRDDYEIEYDQDAETLISGLSVNYDDDDVEIELKRAHVDMYVRKLKERQRRKNIARDYNLVPAFLGKDKKEKEKALKRKITKEEKELRLKLRPLYQFMSCKEFDDLFENMHKEKMLRAKIRELQRYRRNGITKMEESAEYEAARHKREKRKENKNLAGSKRGKEDGKDSEFAAIENLPGFELLSDREKVLCSSLNLSPARYVTVKTIIIKDHLQKRQGIPSKSRLPSYLDKVLKKRILNFLTESGWISRDAS
binding: no binding

Results are given in words; binding and its absence hold for the method and conditions named. Binding seen in cells or lysates may run through a third protein. A yes stands for co-enrichment or nearness to the bait. Other partners may have been found. No binding means not detected with the bait.
